# Data published in the supplement of paper PMC10849652.
# Amino acid sequences for entries named in this document (tags omitted). A change or cut given only in a name is not applied to a line headed by its entry.
# UniProt Q13409, whole entry, looked up: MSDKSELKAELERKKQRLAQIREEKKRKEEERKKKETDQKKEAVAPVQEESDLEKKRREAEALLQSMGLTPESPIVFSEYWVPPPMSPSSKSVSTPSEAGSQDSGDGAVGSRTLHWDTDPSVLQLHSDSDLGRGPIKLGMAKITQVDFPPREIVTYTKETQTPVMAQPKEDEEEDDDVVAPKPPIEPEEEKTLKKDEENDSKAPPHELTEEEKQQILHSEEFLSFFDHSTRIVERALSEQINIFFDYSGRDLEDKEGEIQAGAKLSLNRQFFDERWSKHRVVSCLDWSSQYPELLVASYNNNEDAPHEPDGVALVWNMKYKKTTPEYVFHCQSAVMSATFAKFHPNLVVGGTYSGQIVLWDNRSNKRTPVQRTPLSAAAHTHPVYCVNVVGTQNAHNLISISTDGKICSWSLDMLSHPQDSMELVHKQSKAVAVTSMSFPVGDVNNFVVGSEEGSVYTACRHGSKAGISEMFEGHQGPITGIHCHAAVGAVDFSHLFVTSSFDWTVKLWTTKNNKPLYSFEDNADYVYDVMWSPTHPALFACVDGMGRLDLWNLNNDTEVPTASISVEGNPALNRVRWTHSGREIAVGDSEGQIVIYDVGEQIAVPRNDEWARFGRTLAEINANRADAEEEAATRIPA
# UniProt Q5QJE6: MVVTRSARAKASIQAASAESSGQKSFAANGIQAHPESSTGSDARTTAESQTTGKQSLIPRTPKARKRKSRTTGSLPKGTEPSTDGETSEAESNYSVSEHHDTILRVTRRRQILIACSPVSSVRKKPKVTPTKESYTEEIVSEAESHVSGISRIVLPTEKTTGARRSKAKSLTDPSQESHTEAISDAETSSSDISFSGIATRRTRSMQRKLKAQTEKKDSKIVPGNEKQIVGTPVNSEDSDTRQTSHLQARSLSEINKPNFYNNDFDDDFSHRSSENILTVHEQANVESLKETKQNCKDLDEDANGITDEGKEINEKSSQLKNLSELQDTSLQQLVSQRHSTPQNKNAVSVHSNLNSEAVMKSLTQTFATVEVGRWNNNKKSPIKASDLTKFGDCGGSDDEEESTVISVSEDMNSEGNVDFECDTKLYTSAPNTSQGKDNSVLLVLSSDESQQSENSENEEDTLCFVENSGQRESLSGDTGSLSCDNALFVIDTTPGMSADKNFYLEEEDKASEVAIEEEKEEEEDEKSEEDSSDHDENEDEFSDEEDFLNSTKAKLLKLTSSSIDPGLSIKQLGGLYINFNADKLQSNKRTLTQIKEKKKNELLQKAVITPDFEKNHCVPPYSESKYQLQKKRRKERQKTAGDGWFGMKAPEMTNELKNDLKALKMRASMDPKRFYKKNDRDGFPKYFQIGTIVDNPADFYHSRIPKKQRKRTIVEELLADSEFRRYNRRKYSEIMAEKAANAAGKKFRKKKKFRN
# UniProt Q8NF50: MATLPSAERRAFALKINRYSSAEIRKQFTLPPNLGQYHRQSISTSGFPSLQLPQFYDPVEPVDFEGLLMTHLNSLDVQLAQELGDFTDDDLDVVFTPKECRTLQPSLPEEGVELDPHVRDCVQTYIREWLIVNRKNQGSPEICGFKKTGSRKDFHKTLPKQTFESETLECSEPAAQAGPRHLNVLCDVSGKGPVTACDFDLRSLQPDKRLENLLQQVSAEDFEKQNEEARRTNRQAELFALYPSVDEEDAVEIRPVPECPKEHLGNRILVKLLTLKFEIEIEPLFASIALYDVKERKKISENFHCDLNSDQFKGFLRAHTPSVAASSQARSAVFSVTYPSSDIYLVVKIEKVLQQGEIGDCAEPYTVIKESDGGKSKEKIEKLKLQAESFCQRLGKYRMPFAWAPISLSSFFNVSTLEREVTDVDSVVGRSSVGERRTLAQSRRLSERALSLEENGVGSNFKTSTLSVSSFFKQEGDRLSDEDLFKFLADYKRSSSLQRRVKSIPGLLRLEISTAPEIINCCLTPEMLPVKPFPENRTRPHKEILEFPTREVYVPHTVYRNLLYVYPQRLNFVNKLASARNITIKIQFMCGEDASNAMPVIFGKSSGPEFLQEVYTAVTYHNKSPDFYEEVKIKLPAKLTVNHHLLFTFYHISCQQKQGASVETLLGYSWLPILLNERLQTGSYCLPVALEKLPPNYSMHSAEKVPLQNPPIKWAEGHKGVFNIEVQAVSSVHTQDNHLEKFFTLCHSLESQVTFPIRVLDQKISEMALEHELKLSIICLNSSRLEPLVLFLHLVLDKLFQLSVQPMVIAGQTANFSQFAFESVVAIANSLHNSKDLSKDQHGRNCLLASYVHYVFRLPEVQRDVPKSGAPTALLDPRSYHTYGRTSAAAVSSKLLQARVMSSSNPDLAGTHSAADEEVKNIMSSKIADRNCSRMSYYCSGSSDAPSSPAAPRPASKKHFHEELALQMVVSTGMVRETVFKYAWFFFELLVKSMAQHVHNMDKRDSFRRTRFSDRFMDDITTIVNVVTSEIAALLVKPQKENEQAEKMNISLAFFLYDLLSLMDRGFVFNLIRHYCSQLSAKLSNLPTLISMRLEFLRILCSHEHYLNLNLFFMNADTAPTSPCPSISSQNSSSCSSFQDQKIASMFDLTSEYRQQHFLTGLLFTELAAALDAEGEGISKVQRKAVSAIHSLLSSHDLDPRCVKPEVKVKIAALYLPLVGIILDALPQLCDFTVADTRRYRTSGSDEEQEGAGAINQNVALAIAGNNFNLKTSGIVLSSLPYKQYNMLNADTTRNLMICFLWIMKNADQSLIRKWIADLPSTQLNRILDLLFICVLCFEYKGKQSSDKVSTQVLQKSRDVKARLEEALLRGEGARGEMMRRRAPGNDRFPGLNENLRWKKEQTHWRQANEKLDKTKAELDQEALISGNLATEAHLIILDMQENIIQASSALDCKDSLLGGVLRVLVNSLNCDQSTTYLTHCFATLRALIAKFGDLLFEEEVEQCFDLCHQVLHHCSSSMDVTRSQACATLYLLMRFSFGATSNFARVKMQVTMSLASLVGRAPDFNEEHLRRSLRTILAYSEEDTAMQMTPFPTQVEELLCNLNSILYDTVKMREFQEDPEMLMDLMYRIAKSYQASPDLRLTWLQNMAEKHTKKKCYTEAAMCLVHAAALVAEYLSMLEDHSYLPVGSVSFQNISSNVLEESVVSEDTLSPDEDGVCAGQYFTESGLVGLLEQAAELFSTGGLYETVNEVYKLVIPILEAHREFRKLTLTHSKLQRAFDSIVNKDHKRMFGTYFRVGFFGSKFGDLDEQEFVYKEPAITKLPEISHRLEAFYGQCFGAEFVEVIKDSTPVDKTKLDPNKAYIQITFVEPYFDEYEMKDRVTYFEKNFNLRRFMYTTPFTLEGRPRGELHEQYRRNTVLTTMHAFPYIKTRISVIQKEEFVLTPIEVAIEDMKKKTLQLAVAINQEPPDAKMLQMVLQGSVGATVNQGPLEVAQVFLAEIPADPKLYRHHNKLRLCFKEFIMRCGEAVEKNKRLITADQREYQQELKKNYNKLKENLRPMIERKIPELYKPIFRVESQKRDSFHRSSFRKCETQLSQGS
# UniProt Q86YN1: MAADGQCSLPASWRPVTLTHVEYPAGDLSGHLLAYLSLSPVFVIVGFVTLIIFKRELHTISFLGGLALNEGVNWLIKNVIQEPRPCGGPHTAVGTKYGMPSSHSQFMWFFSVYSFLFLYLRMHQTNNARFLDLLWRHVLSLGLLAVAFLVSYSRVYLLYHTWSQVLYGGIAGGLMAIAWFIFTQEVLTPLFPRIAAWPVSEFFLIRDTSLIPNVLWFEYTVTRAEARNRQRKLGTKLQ
# UniProt Q9H410: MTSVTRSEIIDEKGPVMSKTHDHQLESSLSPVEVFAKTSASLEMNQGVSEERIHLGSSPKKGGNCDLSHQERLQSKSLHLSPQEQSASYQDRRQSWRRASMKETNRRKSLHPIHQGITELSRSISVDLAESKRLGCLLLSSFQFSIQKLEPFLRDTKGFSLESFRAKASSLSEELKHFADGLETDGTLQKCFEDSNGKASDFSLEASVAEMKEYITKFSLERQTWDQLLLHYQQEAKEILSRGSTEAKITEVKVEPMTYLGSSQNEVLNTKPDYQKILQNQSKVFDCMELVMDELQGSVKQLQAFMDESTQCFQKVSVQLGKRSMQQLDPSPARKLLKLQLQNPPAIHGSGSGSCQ
# UniProt P63172, whole entry, looked up: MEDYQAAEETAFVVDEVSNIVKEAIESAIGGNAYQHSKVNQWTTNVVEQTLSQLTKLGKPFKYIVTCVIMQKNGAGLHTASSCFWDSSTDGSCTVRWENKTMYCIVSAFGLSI
# UniProt O00429, whole entry, looked up: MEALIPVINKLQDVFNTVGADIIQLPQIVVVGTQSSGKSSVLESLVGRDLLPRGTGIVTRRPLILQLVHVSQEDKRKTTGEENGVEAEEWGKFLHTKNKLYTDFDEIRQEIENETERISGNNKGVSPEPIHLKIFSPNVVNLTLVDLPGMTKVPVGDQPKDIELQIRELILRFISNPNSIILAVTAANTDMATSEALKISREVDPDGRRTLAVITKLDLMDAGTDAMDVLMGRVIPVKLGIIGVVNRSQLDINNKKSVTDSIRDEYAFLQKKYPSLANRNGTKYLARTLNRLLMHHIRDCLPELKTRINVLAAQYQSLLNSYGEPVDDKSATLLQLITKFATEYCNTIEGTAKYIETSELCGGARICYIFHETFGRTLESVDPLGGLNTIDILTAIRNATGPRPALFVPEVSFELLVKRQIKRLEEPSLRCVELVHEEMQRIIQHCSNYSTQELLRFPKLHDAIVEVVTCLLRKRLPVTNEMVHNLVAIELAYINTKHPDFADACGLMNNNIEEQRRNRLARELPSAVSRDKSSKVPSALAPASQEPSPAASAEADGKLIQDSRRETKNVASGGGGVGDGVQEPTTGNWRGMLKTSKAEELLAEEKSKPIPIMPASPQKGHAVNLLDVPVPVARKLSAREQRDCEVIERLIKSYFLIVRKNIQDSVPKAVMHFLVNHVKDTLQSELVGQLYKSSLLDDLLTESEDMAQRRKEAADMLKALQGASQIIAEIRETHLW
# UniProt Q8NBA8: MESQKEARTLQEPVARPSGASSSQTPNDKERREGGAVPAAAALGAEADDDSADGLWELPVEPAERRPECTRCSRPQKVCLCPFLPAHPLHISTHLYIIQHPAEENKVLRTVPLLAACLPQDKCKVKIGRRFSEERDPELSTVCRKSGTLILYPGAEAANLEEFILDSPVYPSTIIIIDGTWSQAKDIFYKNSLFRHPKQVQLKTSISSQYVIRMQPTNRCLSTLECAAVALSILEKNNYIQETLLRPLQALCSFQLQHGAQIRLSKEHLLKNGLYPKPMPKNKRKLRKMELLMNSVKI
# UniProt Q96FX2: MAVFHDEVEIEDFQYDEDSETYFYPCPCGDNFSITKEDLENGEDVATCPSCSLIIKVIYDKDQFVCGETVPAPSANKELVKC
# UniProt Q99704: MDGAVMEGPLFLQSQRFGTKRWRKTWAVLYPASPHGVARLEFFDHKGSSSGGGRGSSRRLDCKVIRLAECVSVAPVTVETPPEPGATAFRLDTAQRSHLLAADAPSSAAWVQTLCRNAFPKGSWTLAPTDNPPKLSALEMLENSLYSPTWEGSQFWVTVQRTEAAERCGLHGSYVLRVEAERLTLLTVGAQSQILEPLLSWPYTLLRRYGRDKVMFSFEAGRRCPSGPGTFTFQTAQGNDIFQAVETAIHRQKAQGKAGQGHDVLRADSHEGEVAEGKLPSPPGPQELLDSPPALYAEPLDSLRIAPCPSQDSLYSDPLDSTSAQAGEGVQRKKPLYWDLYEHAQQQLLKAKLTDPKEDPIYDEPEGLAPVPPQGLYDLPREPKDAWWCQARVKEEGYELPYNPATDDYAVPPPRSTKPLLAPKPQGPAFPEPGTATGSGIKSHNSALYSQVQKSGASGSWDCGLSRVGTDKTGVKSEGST
# UniProt Q6NUT2: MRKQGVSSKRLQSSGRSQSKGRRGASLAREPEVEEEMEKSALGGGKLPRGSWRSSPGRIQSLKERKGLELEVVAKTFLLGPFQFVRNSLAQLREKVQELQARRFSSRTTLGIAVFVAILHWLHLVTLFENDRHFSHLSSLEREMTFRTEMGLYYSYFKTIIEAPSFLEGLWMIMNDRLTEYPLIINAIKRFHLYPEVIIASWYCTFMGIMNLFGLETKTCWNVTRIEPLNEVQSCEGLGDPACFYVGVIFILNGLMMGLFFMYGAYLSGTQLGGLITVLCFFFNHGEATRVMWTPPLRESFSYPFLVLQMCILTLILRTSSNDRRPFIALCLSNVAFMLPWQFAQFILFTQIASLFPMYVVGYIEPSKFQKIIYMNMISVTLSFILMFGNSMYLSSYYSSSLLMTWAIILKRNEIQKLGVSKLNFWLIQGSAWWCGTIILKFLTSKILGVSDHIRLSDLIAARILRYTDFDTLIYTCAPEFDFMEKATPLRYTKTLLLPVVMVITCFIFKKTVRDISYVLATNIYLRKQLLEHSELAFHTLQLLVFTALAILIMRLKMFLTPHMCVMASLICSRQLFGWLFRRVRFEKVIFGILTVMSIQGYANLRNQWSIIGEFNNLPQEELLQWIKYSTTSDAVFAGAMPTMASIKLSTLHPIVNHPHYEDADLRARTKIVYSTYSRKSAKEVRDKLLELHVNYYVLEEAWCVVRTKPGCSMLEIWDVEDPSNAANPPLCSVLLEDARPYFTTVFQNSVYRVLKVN
# The list shows a part of the results.
# Compound: C1COCCN1CCN2C3=CC=CC=C3N=C2NC(=O)C4=CC(=CC=C4)[N+](=O)[O-] [IRAK-1-4 Inhibitor I]
# Test: log2 fold change, soluble protein after heating vs DMSO (PISA); higher = thermal stabilisation; K562 cells, 10 uM, 30 min; active = over 0.2 and 3.5 SD of the protein, either way, in both replicates (recomputed)
# How it was run: (§1)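 Thermal stability values are relative to control samples and come from duplicates. They are expressed as log2 fold changes. For measurement, K562 cells (2×10^6 cells/mL) received 10 μM compound for 30 min, and aliquots were heated for 3 min over 48°C-58°C, pooled, and extracted at 4°C in PBS with 0.5% NP-40. Soluble protein, the supernatant after 21,000xg for 90 min, was quantified by TMTpro 16plex LC-MS/MS with equalised channel sums.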
row,Target,log2 fold change
1,DOP1B (UniProt Q9Y3R5),inactive: 0.053
2,E2F3 (UniProt O00716),inactive: -0.005
3,DYNC1I2 isoform 2 (UniProt Q13409),inactive: 0.012
4,ECD isoform 3 (UniProt O95905),inactive: 0.025
5,DRAM2 (UniProt Q6UX65),inactive: -0.2
6,E4F1 (UniProt Q66K89),inactive: 0.036
7,EAPP (UniProt Q56P03),inactive: -0.046
8,DNTTIP2 (UniProt Q5QJE6),inactive: -0.027
9,DOCK8 (UniProt Q8NF50),inactive: 0.047
10,DOLPP1 (UniProt Q86YN1),inactive: 0.008
11,DNPEP (UniProt B9ZVU2),inactive: -0.067
12,DSN1 (UniProt Q9H410),inactive: -0.143
13,DNAJC25 (UniProt Q9H1X3),inactive: 0.127
14,DTD2 (UniProt Q96FN9),inactive: -0.055
15,DNAJC16 (UniProt Q9Y2G8),inactive: -0.005
16,DNM2 isoform 4 (UniProt P50570),inactive: 0.019
17,DYRK1A isoform 2 (UniProt Q13627),inactive: -0.001

row,Target,log2 fold change
1,DYNLT1 (UniProt P63172),inactive: 0.071
2,DNM1L isoform 2 (UniProt O00429),inactive: -0.021
3,DTWD2 (UniProt Q8NBA8),inactive: 0.094
4,DUSP9 (UniProt Q99956),inactive: -0.064
5,DOCK10 (UniProt Q96BY6),inactive: 0.033
6,DONSON (UniProt Q9NYP3),inactive: -0.012
7,DPH3 (UniProt Q96FX2),inactive: 0
8,DOK1 (UniProt Q99704),inactive: -0.105
9,DNAJC24 (UniProt Q6P3W2),inactive: -0.035
10,DPYSL2 (UniProt Q16555),inactive: -0.003
11,DNAJC30 (UniProt Q96LL9),inactive: -0.089
12,ECHDC3 (UniProt Q96DC8),inactive: 0.049
13,DNAL1 (UniProt Q4LDG9),inactive: 0.012
14,DYM (UniProt Q7RTS9),inactive: 0.051
15,DNPEP (UniProt C9JBE1),inactive: 0.045
16,DPY19L2 (UniProt Q6NUT2),inactive: -0.002
17,DPCD (UniProt Q9BVM2),inactive: -0.143

# Compound: C=CC(=O)N1CCC[C@@H](n2nc(-c3ccc(Oc4ccccc4)cc3)c3c(N)ncnc32)C1 [ibrutinib]
# Test: as above
# How it was run: as §1
row,Target,log2 fold change
1,DOP1B (UniProt Q9Y3R5),inactive: -0.045
2,E2F3 (UniProt O00716),inactive: 0.103
3,DYNC1I2 isoform 2 (UniProt Q13409),inactive: 0.126
4,ECD isoform 3 (UniProt O95905),inactive: -0.011
5,E4F1 (UniProt Q66K89),inactive: 0.098
6,DNTTIP2 (UniProt Q5QJE6),inactive: 0.045
7,DOCK8 (UniProt Q8NF50),inactive: 0.015
8,DOLPP1 (UniProt Q86YN1),inactive: -0.017
9,DSN1 (UniProt Q9H410),inactive: -0.038
10,DNAJC25 (UniProt Q9H1X3),inactive: 0.066
11,DNAJC16 (UniProt Q9Y2G8),inactive: 0.063
12,DNM2 isoform 4 (UniProt P50570),inactive: -0.074
13,DYRK1A isoform 2 (UniProt Q13627),inactive: -0.009
14,DYNLT1 (UniProt P63172),inactive: 0.044
15,DNM1L isoform 2 (UniProt O00429),inactive: 0.054
16,DTWD2 (UniProt Q8NBA8),inactive: 0.001
17,DPH3 (UniProt Q96FX2),inactive: -0.34
18,DOK1 (UniProt Q99704),inactive: 0.041
19,DNAJC24 (UniProt Q6P3W2),inactive: 0.011
20,DPYSL2 (UniProt Q16555),inactive: 0.092
21,ECHDC3 (UniProt Q96DC8),inactive: -0.126
22,DNAL1 (UniProt Q4LDG9),inactive: -0.082
23,DYM (UniProt Q7RTS9),inactive: -0.115
24,DNPEP (UniProt C9JBE1),inactive: -0.018
25,DPY19L2 (UniProt Q6NUT2),inactive: -0.103

# Compound: CC(=O)c1cnc2ccc(-c3cc(Cl)c(O)c(Cl)c3)nc2c1N[C@H]1CC[C@H](CN(C)C)CC1
# Test: as above
# How it was run: as §1
row,Target,log2 fold change
1,DYNC1I2 isoform 2 (UniProt Q13409),inactive: 0.106
2,DRAM2 (UniProt Q6UX65),inactive: -0.156
3,E4F1 (UniProt Q66K89),inactive: 0.151
4,EAPP (UniProt Q56P03),inactive: -0.054
5,DNTTIP2 (UniProt Q5QJE6),inactive: -0.265
6,DOCK8 (UniProt Q8NF50),inactive: 0.029
7,DOLPP1 (UniProt Q86YN1),inactive: -0.19
8,DNPEP (UniProt B9ZVU2),inactive: 0.157
9,DSN1 (UniProt Q9H410),inactive: -0.041
10,DTD2 (UniProt Q96FN9),inactive: 0.013
11,DNAJC16 (UniProt Q9Y2G8),inactive: -0.541
12,DYRK1A isoform 2 (UniProt Q13627),active: -0.358
13,DYNLT1 (UniProt P63172),inactive: 0.055
14,DNM1L isoform 2 (UniProt O00429),inactive: 0.118
15,DTWD2 (UniProt Q8NBA8),inactive: 0.009
16,DONSON (UniProt Q9NYP3),inactive: 0.057
17,DPH3 (UniProt Q96FX2),inactive: -0.077
18,DOK1 (UniProt Q99704),inactive: -0.026
19,DPYSL2 (UniProt Q16555),inactive: 0.024
20,DNAJC30 (UniProt Q96LL9),inactive: 0.006
21,DNAL1 (UniProt Q4LDG9),inactive: 0.042
22,DPY19L2 (UniProt Q6NUT2),inactive: -0.141
23,DPCD (UniProt Q9BVM2),inactive: -0.064
